# Out of some 400,000 compounds screened, about 13,000 (3.2%) were called active. Inconclusive means that the source gave no clear call. Such entries were picked first, then a sample of the others. Calls follow the shape of the dose curve; as a rule, active = well fitted cell-killing curve with a large enough effect; inconclusive = small, poorly fitted or top-dose-only effect, or effect the other way; inactive = flat fitted curve, though single readings scatter. A potency beside an inconclusive call is a rough fit, not a confirmed value.
# Assay: qHTS assay for MDR1-selective chemotherapeutics: Primary screen using the drug-selected MDR subline cells KB-V1; also: nearly all actives have a fitted effect of over 60% in size
# Settings: KB-V1 MDR cells viability, CellTiter-Glo, 72 h; series mostly up to 46.1 µM
# Summary of the method: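 Cytotoxicity toward P-gp-expressing KB-V1 cells was determined as loss of CellTiter-Glo luminescence after 72 h at 37 degrees C. Compounds were tested in quantitative HTS format across a concentration range, with curves fitted to normalized data.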
# Potency is read from the fitted curve at half-maximal effect.
row,Compound,Potency
1,Cc1ccc2nc(SCC(=O)Nc3cccc([N+](=O)[O-])c3)[nH]c2c1,active: 14.6 µM
2,O=C(N/N=C/c1ccc2ncccc2c1)c1cc(-c2cccs2)nc2ccccc12,"inconclusive: 23.1 µM [cytotoxic, single point]"
3,CN(C)C(=O)c1ccc(SC(=S)NCc2ccccc2)cc1,"inconclusive: 18.4 µM [cytotoxic, single point]"
4,CC(C)c1ccc(CNc2cc(N3CCCC3)ccc2[N+](=O)[O-])cc1,"inconclusive: 13 µM [cytotoxic, partial curve]"
5,Cc1ccc(C)c(CN2C(=O)CSc3ccc(C(=O)NCCN4CCOCC4)cc32)c1,inactive
6,COC(=O)Cc1ccc(OC2(C)CCN(Cc3ccc4c(c3)OCCO4)C2)cc1 (stereo unspecified),inactive
7,COc1ccc(-c2onc(C)c2-c2ccccc2)c(O)c1,"inconclusive: 18.4 µM [cytotoxic, single point]"
8,O=c1c2ccccc2nc(SCc2nc3ccccc3s2)n1Cc1ccco1,"inconclusive: 2.06 µM [cytotoxic, full curve]"
9,Cn1c(SCC(=O)N2CCCc3ccccc32)nc2cccnc21,"inconclusive: 29.1 µM [cytotoxic, single point]"
10,CC1CCCCN1C(=O)c1cc(-c2ccc(Cl)c(Cl)c2)on1 (stereo unspecified),active: 18.4 µM
11,Cc1c(C(=O)N2CCN(c3ncccn3)CC2)oc2ccc(F)cc12,"inconclusive: 3.26 µM [rising, partial curve, poor fit]"
12,COc1ccccc1N1CCN(C(=O)c2cc(-c3ccco3)on2)CC1,"inconclusive: 23.1 µM [cytotoxic, single point]"
13,O=S(=O)(c1ccc(F)cc1)n1ccc(-c2cccc(OCc3c(F)cccc3Cl)c2)n1,active: 20.6 µM
14,Cn1cccc1C1C=C(c2ccc(C(C)(C)C)cc2)Nc2ncnn21 (stereo unspecified),active: 16.4 µM
15,O=C(CSc1c2c(nc3ccc(Cl)cc13)CCCC2)NCc1ccco1,"inconclusive: 29.1 µM [cytotoxic, single point]"
16,CCC1CCCCN1S(=O)(=O)c1ccc2[nH]c(=O)ccc2c1 (stereo unspecified),"inconclusive: 29.1 µM [rising, single point]"
17,COc1ccc(C2C=C(c3ccc(C)cc3)Nc3c(C(=O)Nc4ccccc4)cnn32)cc1 (stereo unspecified),"inconclusive: 23.1 µM [cytotoxic, single point]"
18,CC(C)Cc1cc(C(=O)N(C)C2CCCN(Cc3ccccc3F)C2)n(C)n1 (stereo unspecified),"inconclusive: 36.6 µM [cytotoxic, partial curve, poor fit]"
19,N#CCSc1nnc(-c2ccc3c(c2)OCO3)o1,"inconclusive: 32.6 µM [rising, single point]"
20,Cc1cccc(CC(Cc2nc3ccccc3[nH]2)c2nc3ccccc3[nH]2)c1 (stereo unspecified),"inconclusive: 10.3 µM [cytotoxic, partial curve]"
21,CCOc1ccc(N2C(=O)c3cccnc3C2Nc2ccc(Cl)cc2)cc1 (stereo unspecified),"inconclusive: 9.2 µM [cytotoxic, partial curve]"
22,O=c1c2ccccc2nc(/C=C/c2ccc([N+](=O)[O-])cc2)n1CCCO,active: 20.6 µM
23,CCN(CC)CCCNc1oc(/C=C/c2ccccc2)nc1C#N,inactive

# 4 successive compounds from above:
row,Compound,Potency
6,COC(=O)Cc1ccc(OC2(C)CCN(Cc3ccc4c(c3)OCCO4)C2)cc1 (stereo unspecified),inactive
7,COc1ccc(-c2onc(C)c2-c2ccccc2)c(O)c1,"inconclusive: 18.4 µM [cytotoxic, single point]"
8,O=c1c2ccccc2nc(SCc2nc3ccccc3s2)n1Cc1ccco1,"inconclusive: 2.06 µM [cytotoxic, full curve]"
9,Cn1c(SCC(=O)N2CCCc3ccccc32)nc2cccnc21,"inconclusive: 29.1 µM [cytotoxic, single point]"

# Next results follow:

row,Compound,Potency
1,O=C(CSc1nnc(-c2cccc(F)c2)o1)Nc1nncs1,inactive
2,NC(=S)N/N=C/c1ccccc1,inactive
3,Cc1cccc(N2CCN(C(=O)c3ccc4ncsc4c3)CC2)c1C,"inconclusive: 1.84 µM [cytotoxic, full curve, poor fit]"
4,COc1ccncc1-c1ccc(C2=CC(=O)CC(C)(C)C2=O)cc1,inactive
5,C[C@H](CO)N1C[C@H](C)[C@@H](CN(C)C(=O)Nc2ccc(C(F)(F)F)cc2)Oc2ccc(NS(=O)(=O)c3cn(C)cn3)cc2C1=O,inactive
6,O=C(CC1S/C(=N/N=C2CCCCCC2)NC1=O)Nc1ccccc1C(F)(F)F (stereo unspecified),"inconclusive: 29.1 µM [cytotoxic, single point]"
7,Cc1ccc(C)c(NS(=O)(=O)c2ccc(-c3cnc(C4CC4)o3)cc2)c1,active: 0.326 µM
8,CC(C)Cn1c(SCC(=O)N2CCN(S(=O)(=O)c3ccccc3)CC2)nc2ccccc21,inactive
9,COc1ccc(/C=N/n2cnc3c([nH]c4ccc(C)cc43)c2=O)cc1CN1CCCC1,"inconclusive: 18.4 µM [cytotoxic, single point]"
10,C/C(=N\NC(=O)c1cccc(Cl)c1)C1C(=O)c2ccccc2C1=O,active: 9.2 µM
11,O=C(CN1CCN(c2ccc(Cl)cc2)CC1)Nc1ccc(F)cc1,active: 20.6 µM
12,O=S1(=O)CCOCCCN1Cc1cccc(Cl)c1,inactive
13,Cc1ccc(-n2c(SCC(=O)Nc3ccc(Cl)cc3)nc(O)cc2=O)cc1,"inconclusive: 5.17 µM [rising, partial curve, poor fit]"
14,COc1ccc(S(=O)(=O)N2C[C@H]3CON(C)[C@H]3C[C@H]2c2ccc(-c3cccc(F)c3)cc2)cc1,"inconclusive: 18.4 µM [cytotoxic, single point]"
15,CC1CCC(NC(=O)C2CCN(C(=O)Nc3ccccc3)CC2)CC1 (stereo unspecified),active: 16.4 µM
16,CCc1cccc(NC(=O)Cn2c(C(=O)OC)cc3occc32)c1,inactive
17,CC(C)CCn1c(=O)c2ccccc2n2c(CN(C)Cc3ccccc3)nnc12,"inconclusive: 23.1 µM [cytotoxic, single point]"
18,CCc1ccc2oc(C(=O)N3CCN(c4ccc(OC)cc4)CC3)cc(=O)c2c1,inactive
19,O=C1C=CC(=C(c2ccc(O)cc2)c2ccc(O)cc2)C=C1,"inconclusive: 29.1 µM [cytotoxic, single point]"
20,C[C@H]1CN([C@@H](C)CO)C(=O)CCCn2cc(nn2)CO[C@@H]1CN(C)S(=O)(=O)c1ccc(-n2cccn2)cc1,inactive
21,COC(=O)[C@H]1C[C@H]1[C@@H](NC(=O)c1ccc[nH]1)c1ccccc1,inactive
22,O=C(CCn1nc(-c2ccc(Cl)cc2)ccc1=O)N1CCN(c2ccccn2)CC1,"inconclusive: 11.6 µM [cytotoxic, partial curve, poor fit]"
23,Cn1cccc1C(=O)OCC(=O)Nc1sccc1C#N,active: 16.4 µM

# — PubChem BioAssay AID1347076 (National Center for Advancing Translational Sciences (NCATS), 2019)
